For four molecules, binding results are on record in US20130280758A1 (Regeneron, published 2013).

For experiment [1], the target named is rat Tie-2 (rTie-2), as used in BIAcore analysis (rat). Briefly: BIAcore. On the technique in general: Surface plasmon resonance follows binding to a sensor surface in real time, without labels.
For experiment [2] the target is unchanged. Briefly: BIAcore, sequential binding.
Experiment [3] deals with T1, rat Tie-1 (rTie-1), as used in BIAcore analysis (rat) (UniProt F7F3P6).
T1 sequence: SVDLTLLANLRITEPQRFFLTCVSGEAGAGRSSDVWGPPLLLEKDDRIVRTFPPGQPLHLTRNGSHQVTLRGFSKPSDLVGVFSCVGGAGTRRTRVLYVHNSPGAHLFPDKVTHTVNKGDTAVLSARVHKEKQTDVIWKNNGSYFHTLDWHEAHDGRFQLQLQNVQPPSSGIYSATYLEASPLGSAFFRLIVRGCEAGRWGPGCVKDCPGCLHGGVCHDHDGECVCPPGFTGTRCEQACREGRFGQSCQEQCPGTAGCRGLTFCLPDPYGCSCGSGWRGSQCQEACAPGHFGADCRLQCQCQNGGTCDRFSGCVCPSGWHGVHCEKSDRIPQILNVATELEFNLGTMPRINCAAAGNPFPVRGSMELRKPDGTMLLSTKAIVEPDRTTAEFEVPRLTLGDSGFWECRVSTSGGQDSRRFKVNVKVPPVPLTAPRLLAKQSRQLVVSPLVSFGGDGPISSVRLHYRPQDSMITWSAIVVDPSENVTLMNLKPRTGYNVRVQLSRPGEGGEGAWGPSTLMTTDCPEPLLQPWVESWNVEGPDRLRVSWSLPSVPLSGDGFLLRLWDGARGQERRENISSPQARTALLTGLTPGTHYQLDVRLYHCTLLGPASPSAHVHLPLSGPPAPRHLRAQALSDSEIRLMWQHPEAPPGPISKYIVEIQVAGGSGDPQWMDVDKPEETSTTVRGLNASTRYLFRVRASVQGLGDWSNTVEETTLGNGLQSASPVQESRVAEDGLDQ
Briefly: BIAcore, sequential binding.

No constants are given. Whether binding was seen depends on the method and setting. Some binding calls cover weakened binding; strength is not graded here.

B1: B2 antibody (anti-rat Tie-2 mouse hybridoma antibody) (antibody, V domains shown)
VH: QVKLEESGPGLVKPSQSLSLTCTVTGYSITSDYAWNWIRQFPGNKLEWMGYINYSGITSYNPSLKSRISITRDTSKNQFFLQLNSVTAEDTATYYCARYYGSSYNYYGMDYWGQGTSVTVSS
VL: DIVMTQSPKSMSMSVGERVTLNCKASENVGTYISWYQQKPDQSPKLLIYGASNRYPGVPDRFTGSGSATDFTLTISSLQAEDLADYHCGQGYTYLTFGAGTKLELKR
On to B1, for which the binding result in experiment [1] and in experiment [2] was “binds” each time.

B2: A12A antibody (anti-rat Tie-2 mouse hybridoma antibody) (antibody, V domains shown)
VH: EVKLQESGAELMKPGASVKISCKATGYTFSSYWIEWVKQRPGHGLEWIGEILPGSGSTNYNEKFKGKATFTADTFSNTAYMQLSSLTSEDSAVYYCARFDGYLPFDHWGQGTTLTVSS
VL: DIVLTQSPASLAVSLGQRATISCRASKSVITSGYSYMHWYQQKPGQPPQLLIYLASNLESGVPARFSGSGSGTDFTLNIHPVEEEDAATYYCHHSRELPRTFGGGTKLEIKR
Turning to B2, the binding entry in experiment [1] and in experiment [2] was “binds” in each case.

B3: 1-1F11 antibody (anti-rat Tie-1 mouse hybridoma antibody) (antibody, V domains shown)
VH: DVQLVESGGGLVQPGGSRKLSCAASGFTFSSFGMHWVRQAPEKGLEWVAYISSGSSNIYYADTVKGRFTISRDNPKNTLFLQMTSLRSEDTAMYYCARGYDYDRGYYAIDYWGQGTSVTVSS
VL: DIQMTQSPASLSASVGETVTITCRASENIYSNLAWYQQKQGKSPQLLVYGATNLADGVPSRFSGSGSGTQYSLKINSLQSEDFGSYYCQHFWGTPWTLGGGTKLEIKR
For B3, in experiment [3], the binding result was “binds”.

B4: 2-1G3 antibody (anti-rat Tie-1 mouse hybridoma antibody) (antibody, V domains shown)
VH: EVKLVESGGGLVKPGGSLKLSCAASGFTFSSYGMSWVRQTPEKRLEWVATISGGGSYTYYPDSVKGRFTISRDNAKNNLYLQMSSLRSEDTALYYCARRRYDPYAMDYWGQGTSVTVSS
VL: DIQMTQTTSSLSASLGDRVTISCRASQDISNYLNWYQQKPDGTVKLLIYYISRLHSGVPSRFSGSGSGTDYSLTISNLEQEDIATYFCQQGNTLPYTFGGGTKLEIKR
For the molecule B4, the binding result in experiment [3] is given as “binds”.
